Measured values: patent publication US12559733B2, “Optimization of type IV BRAF inhibitors for the treatment of melanoma” (UNIVERSITY OF SOUTH CAROLINA, priority 2020, dated 2026)
At least one peptide structure holds a part that was inferred or is arguable (an end, a ring closure or a residue).

Test system: NRASQ61K-mutant SBcl2 melanoma cells
Assay: Western blotting of MEK/ERK signalling in melanoma cells treated with peptide and PLX4032
Type: cell-based, human
Settings: FIG. 2A, cells electroporated with peptide, 1 μM PLX4032 1 hour or DMSO

CC[C@H](C)[C@H](NC(=O)[C@H](CC(N)=O)NC(=O)[C@@H](NC(=O)[C@H](Cc1c[nH]cn1)NC(=O)[C@H](CCCNC(=N)N)NC(=O)[C@@H](NC(=O)[C@H](CCCCN)NC(=O)[C@H](CCCNC(=N)N)NC(=O)[C@H](CC(C)C)NC(=O)[C@@H](N)C(C)C)[C@@H](C)O)C(C)C)C(=O)N[C@@H](CC(C)C)C(=O)N[C@@H](CC(C)C)C(=O)N[C@@H](Cc1ccccc1)C(=O)N[C@@H](CCSC)C(=O)NCC(=O)O [SEQ ID NO: 17]
downstream signaling of MEK and ERK (pMEK, pERK): reduce downstream signaling of MEK and ERK
